## Results from one PubChem assay

The results are deposited in PubChem (AID504749; NCATS, 2011).

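Malaria parasite (P. falciparum) lines kept in red blood cells; parasite DNA is measured by SYBR Green fluorescence after lysis, 72 h after compound addition.
Each compound was titrated across a series from about 0.000037 to 29 µM.
The number is the fitted AC50, the concentration giving a half-maximal change in signal; a lower value means higher potency, whether the curve shows a decrease or an increase.
Calls follow the curve class and fit quality: every row here is inconclusive, covering signal-raising curves and weak, poorly fitted, partial or highest-dose-only inhibition curves.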

Values are in µM.
Every entry below has the call inconclusive.
Only part of the assay is shown, chiefly results filed as inconclusive.
Potencies fitted to partial, single-point or poorly fitting curves are rough.
Some entries filed as inconclusive have a full curve.
The first word of each remark tells which way the curve ran; it can be opposite to the aim of the assay.

Compound	setting	potency (µM)	curve as filed
COc1ccc(C(=O)c2ccccc2O)c(O)c1	DIV17	8.087	inhibitor, single point
COc1ccc(C(=O)c2ccccc2O)c(O)c1	CP215	6.424	inhibitor, single point
COc1ccc(C(=O)c2ccccc2O)c(O)c1	W2	8.087	inhibitor, single point
COc1ccc(C(=O)c2ccccc2O)c(O)c1	PC26	5.103	inhibitor, single point
COc1ccc(C(=O)c2ccccc2O)c(O)c1	GB4	7.208	inhibitor, single point
COc1ccc(C(=O)c2ccccc2O)c(O)c1	CP265	10	inhibitor, single point
OCC(CO)NC1C[C@](O)(CO)[C@@H](O)[C@H](O)[C@H]1O (stereo not given in full)	CP291	19.01	inhibitor, single point
OCC(CO)NC1C[C@](O)(CO)[C@@H](O)[C@H](O)[C@H]1O (stereo not given in full)	CP266	0.001	activator
CCC1(CC)C(=O)C=CNC1=O	CP247	2.818	inhibitor, single point
CCC1(CC)C(=O)C=CNC1=O	CP266	0.1069	inhibitor, full curve
COC(=O)C1=C(C)NC(C)=C(C(=O)OC)C1c1ccccc1[N+](=O)[O-]	DIV17	19.01	inhibitor, partial curve, poor fit
COC(=O)C1=C(C)NC(C)=C(C(=O)OC)C1c1ccccc1[N+](=O)[O-]	ICS	17.78	inhibitor, single point
COC(=O)C1=C(C)NC(C)=C(C(=O)OC)C1c1ccccc1[N+](=O)[O-]	CP250	17.78	inhibitor, single point
COC(=O)C1=C(C)NC(C)=C(C(=O)OC)C1c1ccccc1[N+](=O)[O-]	CP260	17.78	inhibitor, single point
COC(=O)C1=C(C)NC(C)=C(C(=O)OC)C1c1ccccc1[N+](=O)[O-]	7G8	8.912	inhibitor, single point
COC(=O)C1=C(C)NC(C)=C(C(=O)OC)C1c1ccccc1[N+](=O)[O-]	CP247	11.22	inhibitor, single point
CC(=O)Oc1ccc(C2(c3ccc(OC(C)=O)cc3)C(=O)Nc3ccccc32)cc1	CP297	0.151	inhibitor, partial curve, poor fit
CC(=O)Oc1ccc(C2(c3ccc(OC(C)=O)cc3)C(=O)Nc3ccccc32)cc1	TAB113	2.512	inhibitor, single point
CCCCCCCCCCCCCCCCCC(=O)O	TAB109	3.981	inhibitor, single point
CCCCCCCCCCCCCCCCCC(=O)O	CP211	0.0675	inhibitor, full curve, poor fit
COC(=O)C1=C(C)NC(C)=C(C(=O)OCCN2CCN(C(c3ccccc3)c3ccccc3)CC2)C1c1cccc([N+](=O)[O-])c1 (stereo not given)	3D7	3.981	inhibitor, partial curve, poor fit
COC(=O)C1=C(C)NC(C)=C(C(=O)OCCN2CCN(C(c3ccccc3)c3ccccc3)CC2)C1c1cccc([N+](=O)[O-])c1 (stereo not given)	CP265	3.548	inhibitor, full curve, poor fit
Cc1onc(-c2ccccc2Cl)c1C(=O)N[C@H]1C(=O)N2[C@H]1SC(C)(C)[C@H]2C(=O)O	CP266	8.087	inhibitor, single point
Cc1onc(-c2ccccc2Cl)c1C(=O)N[C@H]1C(=O)N2[C@H]1SC(C)(C)[C@H]2C(=O)O	7G8	10	inhibitor, single point
CN1CCC[C@@H]1c1cccnc1	DIV14	19.01	activator, partial curve, poor fit

The last 3 entries again:

Compound	setting	potency (µM)	curve as filed
Cc1onc(-c2ccccc2Cl)c1C(=O)N[C@H]1C(=O)N2[C@H]1SC(C)(C)[C@H]2C(=O)O	CP266	8.087	inhibitor, single point
Cc1onc(-c2ccccc2Cl)c1C(=O)N[C@H]1C(=O)N2[C@H]1SC(C)(C)[C@H]2C(=O)O	7G8	10	inhibitor, single point
CN1CCC[C@@H]1c1cccnc1	DIV14	19.01	activator, partial curve, poor fit